Measurements taken from PMC10139083.
No constants are given. Whether binding was seen depends on the method and setting. For some of these results: In cells and extracts the contact can be indirect. Some results given as binding are weak or reduced against the parent protein; the word gives no strength.

Amino acid sequences for entries named in this document (tags omitted).
UniProt P61088: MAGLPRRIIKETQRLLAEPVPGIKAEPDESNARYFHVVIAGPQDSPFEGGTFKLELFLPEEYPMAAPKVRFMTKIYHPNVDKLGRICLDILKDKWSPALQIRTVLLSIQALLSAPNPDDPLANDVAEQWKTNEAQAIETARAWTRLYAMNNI
UniProt P22314: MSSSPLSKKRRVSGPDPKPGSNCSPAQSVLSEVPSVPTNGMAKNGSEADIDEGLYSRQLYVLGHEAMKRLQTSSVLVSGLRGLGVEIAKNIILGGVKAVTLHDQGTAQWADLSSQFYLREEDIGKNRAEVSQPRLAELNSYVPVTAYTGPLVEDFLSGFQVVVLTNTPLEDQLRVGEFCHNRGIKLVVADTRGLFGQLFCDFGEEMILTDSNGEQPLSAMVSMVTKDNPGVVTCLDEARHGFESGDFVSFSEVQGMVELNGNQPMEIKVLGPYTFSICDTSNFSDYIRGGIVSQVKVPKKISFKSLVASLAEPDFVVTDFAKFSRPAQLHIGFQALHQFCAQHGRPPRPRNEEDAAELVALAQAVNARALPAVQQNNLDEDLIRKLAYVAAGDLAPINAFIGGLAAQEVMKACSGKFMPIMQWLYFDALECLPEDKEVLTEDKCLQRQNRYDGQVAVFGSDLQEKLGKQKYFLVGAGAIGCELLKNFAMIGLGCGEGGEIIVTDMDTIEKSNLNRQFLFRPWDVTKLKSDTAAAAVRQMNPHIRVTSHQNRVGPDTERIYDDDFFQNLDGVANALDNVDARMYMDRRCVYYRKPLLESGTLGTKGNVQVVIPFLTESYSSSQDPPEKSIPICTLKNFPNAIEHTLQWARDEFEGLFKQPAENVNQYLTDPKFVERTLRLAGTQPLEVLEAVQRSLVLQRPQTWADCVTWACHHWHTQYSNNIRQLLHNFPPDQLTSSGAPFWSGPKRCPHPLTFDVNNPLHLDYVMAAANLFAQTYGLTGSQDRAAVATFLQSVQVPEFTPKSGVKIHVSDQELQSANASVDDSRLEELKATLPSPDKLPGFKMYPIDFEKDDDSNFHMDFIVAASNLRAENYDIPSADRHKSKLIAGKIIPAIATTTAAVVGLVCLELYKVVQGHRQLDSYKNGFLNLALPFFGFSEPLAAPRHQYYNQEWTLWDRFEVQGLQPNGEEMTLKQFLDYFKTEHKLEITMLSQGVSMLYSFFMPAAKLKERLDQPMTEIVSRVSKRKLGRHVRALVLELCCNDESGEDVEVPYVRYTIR

Experiments:
[1] = molecular target: T1, N-Biotin EphB4 958-987 (synthetic EphB4 C-tail peptide) (human); test: pull-down; PTM-enhanced pull-down: 50 ug N-biotin EphB4 958-987 peptide on streptavidin magnetic beads; 750 ug whole MSTO211H cell extract (cells with or without IGF-II neutralizing antibody), 10 mM Tris pH 7.5, 4 mM ATP, 2 mM MnCl2, 1 ug recombinant ubiquitin, 0.025% NP40; 48 h at 4 C; western …; only the target purified
T1 sequence (peptide, biotin on the N-terminus (Biotin-NH-)): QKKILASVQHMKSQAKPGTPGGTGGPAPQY

[2] = molecular target: EphB4 (Eph receptor B4), native protein of MSTO211H cells (human (endogenous in MSTO211H)) (UniProt P54760); test: ELISA; native EphB4 captured from cross-linked whole cell extracts of MSTO211H at a non-limiting target/capturing antibody rate; cdc48/p97 detected; cells with or without IGF-II neutralizing antibody, MG132 (200 nM) or ML240 (200 nM)

binding [1] | binding [2] | Substance
binds | – | UBE2N (E2 ubiquitin ligase), native protein of MSTO211H cells (from UniProt P61088 1-152) (enzyme)
binds | binds | Cdc48/p97 (Valosin-containing protein, VCP), native protein of MSTO211H cells (from UniProt P55072 1-806) (enzyme)
binds | – | UBA1 (E1 ubiquitin ligase), native protein of MSTO211H cells (from UniProt P22314 1-1058) (enzyme)
